Assay results as given in publication PMC13186709.
Construct, isoform or probe ends are uncertain for at least one entry.

Test system: Egalitarian (Egl) + Bicaudal D (BicD)
Experiment: MST
Conditions: MST: 1 nM Cy5-RNA in GF150 (25 mM HEPES pH 7.3, 150 mM KCl, 1 mM MgCl2, 0.1 mM Mg-ATP, 5 mM DTT, 10% glycerol) + 0.05% Tween-20, 15 min, room temperature, recombinant protein, protein details: C-terminal TEV-ZZ (cleaved), label: 5'-Cy5

“UUACACCACUUGAUUGUAUUUUUAAAUUAAUUCUUAAAAAUACAAUUAAGAUCACUCU [TLS∆b]” was tested, and the Kd (prep 1 (order in figure)) was 6.5 µM, the Kd (prep 2 (order in figure)) was 2.36 µM and the Kd (prep 3 (order in figure)) was 1.82 µM.
